Out of some 78,000 compounds screened, about 1,800 (2.3%) were called active. This list was built around the results that the source calls inconclusive (neither active nor inactive); the mix of calls is not that of the screen. Rule as the data show it: active = inhibition above about 30%; inconclusive = mostly about 10% to 28%; inactive = weaker than that.
Target: Interleukin-1 receptor-like 1 (Homo sapiens) (UniProt Q01638)
Assay: blocks human ST2 binding to IL-33, primary screen, biochemical, AlphaLISA (AID 1259354)
Conditions: AlphaLISA ST2-Fc/biotin-IL-33 interaction, 1 h; at 17 µM, hits give high values

Chains of the proteins cited; added tags and fusions are not shown. Lines headed by an entry give the natural chain unless they say otherwise; changes in a name come on top.
UniProt Q01638: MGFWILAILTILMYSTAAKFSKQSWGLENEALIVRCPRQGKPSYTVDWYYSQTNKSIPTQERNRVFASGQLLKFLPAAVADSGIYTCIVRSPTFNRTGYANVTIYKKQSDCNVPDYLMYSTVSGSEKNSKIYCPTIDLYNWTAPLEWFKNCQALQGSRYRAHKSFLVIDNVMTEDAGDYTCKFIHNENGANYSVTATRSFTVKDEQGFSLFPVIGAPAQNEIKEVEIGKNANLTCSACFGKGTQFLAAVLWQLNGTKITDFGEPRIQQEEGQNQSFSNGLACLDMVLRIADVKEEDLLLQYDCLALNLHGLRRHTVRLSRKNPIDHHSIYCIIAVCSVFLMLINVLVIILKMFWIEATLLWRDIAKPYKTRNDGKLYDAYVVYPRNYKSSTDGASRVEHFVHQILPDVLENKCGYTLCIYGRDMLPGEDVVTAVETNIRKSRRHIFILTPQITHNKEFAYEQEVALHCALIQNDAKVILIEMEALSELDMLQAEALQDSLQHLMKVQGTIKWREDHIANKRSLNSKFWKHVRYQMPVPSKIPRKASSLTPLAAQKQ

Row | Compound | inhibition
1 | COc1ccccc1-c1ccnc(-n2ncc(C(=O)NC3Cc4ccccc4C3)c2C2CC2)n1 | inconclusive: 26%
2 | Cc1cc(C)n(CCNC(=O)Cc2c(C)[nH]c3ccccc23)c(=O)n1 | inconclusive: 15%
3 | COc1cc(/C=C2\NC(=O)N(Cc3ccc(Cl)cc3)C2=O)cc(Br)c1O | inconclusive: 22%
4 | Cc1ccc(-n2c(SCC(=O)NCc3ccco3)nc3c(c2=O)SCC3)cc1 | inconclusive: 13%
5 | COc1ccc(-c2ccc(C3NCCc4[nH]cnc43)cc2)cn1 (stereo not given) | inactive
6 | Cc1cc(NC(=O)c2ccc(Br)o2)nc2c1c(=O)oc1ccccc12 | inactive
7 | N#CC1=C(N)OC2=C(C(=O)CC(c3ccccc3)C2)C1c1ccoc1 (stereo not given) | inconclusive: 13%
8 | O=C(Nc1ccc(Cl)cc1)c1cnc2ccccc2n1 | inconclusive: 17%
9 | Cc1ccc(C(=O)Nc2nnc(CCS(=O)(=O)c3ccc(Cl)cc3)s2)cc1 | inactive
10 | Cc1ccc(Nc2nnc(-c3ccc(C)c(S(=O)(=O)NCCO)c3)c3ccccc23)cc1 | inactive
11 | CCOC(=O)c1ccc(Cn2ccnc2-c2cnc[nH]2)o1 | inconclusive: 11%
12 | N#Cc1ccc(CNC(=O)[C@@H]2Cc3nc[nH]c3CN2Cc2ccc(F)cc2)cc1 | inactive
13 | CCN(CC)Cc1cnc2c(C(=O)N3CCS(=O)(=O)CC3)cnn2c1 | inactive
14 | Cc1nc(-c2cc3cc(Cl)cc(Cl)c3oc2=O)cs1 | inconclusive: 27%
15 | CC1=C(C(=O)Nc2cccnc2)C(c2cccnc2)n2nc(SCc3ccccc3)nc2N1 (stereo not given) | inconclusive: 15%
16 | CC1=CC[C@@H]2CN(C(=O)Cc3c(C)nc(C)[nH]c3=O)C[C@@H]2C1 | inactive
17 | O=c1c2c3c(sc2nnn1Cc1ccccc1F)CCCC3 | inconclusive: 17%
18 | COc1cc2c(cc1OC)C(C(=O)NCC1CCCO1)C(c1ccccc1F)N(C)C2=O (stereo not given) | inconclusive: 16%
19 | COc1ccccc1-n1c(SCc2ccc(F)cc2)nc2c(c1=O)SCC2 | inconclusive: 14%
20 | O=C(CCSc1ccc2c(c1)OCCO2)NCCc1cnc[nH]1 | inconclusive: 14%
21 | CCCc1ccc(-c2nccn2CCN2CCCC2=O)o1 | inconclusive: 11%
22 | O=C(c1noc2c1CCCCC2)N1CCc2ccccc2C1 | inconclusive: 20%
23 | O=C(COc1ccc(-c2ccccc2)cc1)Nc1ncn[nH]1 | inactive

Random excerpt: five records from the list
Row | Compound | inhibition
23 | O=C(COc1ccc(-c2ccccc2)cc1)Nc1ncn[nH]1 | inactive
13 | CCN(CC)Cc1cnc2c(C(=O)N3CCS(=O)(=O)CC3)cnn2c1 | inactive
8 | O=C(Nc1ccc(Cl)cc1)c1cnc2ccccc2n1 | inconclusive: 17%
9 | Cc1ccc(C(=O)Nc2nnc(CCS(=O)(=O)c3ccc(Cl)cc3)s2)cc1 | inactive
16 | CC1=CC[C@@H]2CN(C(=O)Cc3c(C)nc(C)[nH]c3=O)C[C@@H]2C1 | inactive

Later entries

Row | Compound | inhibition
24 | COc1ccc2cc(-c3[nH]ncc3CNC(c3nc4ccc(C)cc4[nH]3)C(C)C)ccc2c1 (stereo not given) | inactive
25 | O=C(CN1C(=O)c2cccc([N+](=O)[O-])c2C1=O)Nc1nnc(-c2ccccc2)s1 | inactive
26 | O=[N+]([O-])c1ccccc1S(=O)(=O)Nc1ccc(I)cc1 | inactive
27 | COc1ccc(Nc2cc(C)nc(Nc3ccc(NC(=O)c4ccc(C)c(C)c4)cc3)n2)cc1 | inconclusive: 28%
28 | O=C(CN1C(=O)S/C(=C\c2ccccc2OCc2cccc(F)c2)C1=O)N1CCOCC1 | active: 30%
29 | CC1CCC(C(=O)NC(C(=O)NCCCN2CCCC2=O)C(C)C)CC1 (stereo not given) | inactive
30 | COc1ccccc1NCc1cccs1 | active: 32%
31 | COc1cc(NC(=O)C(Cl)Cl)c(OC)cc1Cl | inconclusive: 10%
32 | CN(CCc1noc(C2CC2)n1)C(=O)[C@@H]1C[C@@H]2C=C[C@H]1C2 | inconclusive: 14%
33 | CN(CC1CCN(c2ccccc2)C1)C(=O)c1c(O)cccc1O (stereo not given) | inconclusive: 19%
34 | CC(C)C1CN(C(=O)c2cnc3ccccn23)CCCN1CC1CC1 (stereo not given) | inconclusive: 16%
35 | Cn1c(C(Cc2ccccc2)NC(=O)c2ccccc2)nc2ccccc21 (stereo not given) | inconclusive: 10%
36 | CC1=CC(C)(C)N(C(=O)CN2C(=O)c3cccc([N+](=O)[O-])c3C2=O)c2ccccc21 | active: 32%
37 | CCc1nc(N2CCCCC2)c2c3c(sc2n1)CCC3 | inconclusive: 14%
38 | N=c1c2c(-c3ccccc3)c(-c3ccccc3)n(Cc3ccco3)c2ncn1CCCn1ccnc1 | inconclusive: 13%
39 | O=C(c1cccc(Br)c1)N1CCN(c2ccc([N+](=O)[O-])c(N3CCOCC3)c2)CC1 | inconclusive: 29%
40 | COc1ccccc1N1CCN(C(=O)c2cc3cc4ccc(Cl)cc4nc3o2)CC1 | inactive
41 | CC[C@]1(O)C[C@H]2CN(CCc3c([nH]c4ccccc34)[C@@](C(=O)OC)(c3cc4c(cc3OC)N(C=O)C3[C@]45CCN4CC=C[C@@](CC)([C@@H](OC(C)=O)[C@]3(O)C(=O)OC)[C@H]45)C2)C1 (stereo not given in full) | inconclusive: 11%
42 | O=C(c1cn(-c2ccccc2)nn1)N1CCN(C(=O)C2CCCO2)CC1 (stereo not given) | inconclusive: 15%
43 | O=C(NCCCO)/C(=C/c1ccc2c(c1)OCO2)NC(=O)c1ccccc1Cl | inactive
44 | CCCCN(Cc1ccccc1)Cc1cc(OC)c(OC)cc1[N+](=O)[O-] | inconclusive: 29%
45 | C=C1C(=O)OC2/C=C(\CO)CC/C=C(/C=O)CC(OC(=O)CC(C)C)C12 (stereo not given) | inconclusive: 14%
46 | CCC1CCCCN1CCNS(=O)(=O)c1cccc2nsnc12 (stereo not given) | inactive

Row | Compound | inhibition
47 | COc1cc(/C=C/C(=O)OC[C@H]2O[C@H](O[C@]3(CO)O[C@H](CO)[C@@H](O)[C@@H]3OC(=O)/C=C/c3cc(OC)c(O)c(OC)c3)[C@H](O)[C@@H](O)[C@@H]2O)cc(OC)c1O | inactive
48 | Nc1nc(=O)n2c(n1)oc1ccccc12 | inconclusive: 13%
49 | CN(Cc1sc2ccccc2c1Cl)c1ncnc2c1CCNC2 | inconclusive: 12%
50 | O=C(Nc1ccc(N2CCCC2)cc1)C(Cl)(Cl)Cl | active: 38%
51 | O=C(NCc1ccc2sccc2c1)C1CCC(=O)N(Cc2ccccn2)C1 (stereo not given) | inconclusive: 10%
52 | Clc1ccccc1C1NCCc2c1[nH]c1ccccc21 (stereo not given) | inconclusive: 16%
53 | O=C(NC1CCN(Cc2ccccc2)CC1)C1CCCN(S(=O)(=O)c2cnc[nH]2)C1 (stereo not given) | inactive
54 | CN(CC1(CO)CCCC1)c1ccnc(C(=O)NCc2cccnc2)c1 | inconclusive: 10%
55 | CCN1CCCC1CNC(=O)c1cc2cc3ccc(OC)cc3nc2o1 (stereo not given) | inactive
56 | Cc1ccc(-n2nc3ccc(NC(=O)COc4ccccc4C)cc3n2)cc1 | inconclusive: 15%
57 | CC(C(=O)N1CCCc2c1c(=O)oc1ccc(O)cc21)N1CCCC1 (stereo not given) | inconclusive: 15%
58 | O=C(Nc1ccnn1C1CCN(C(=O)c2cccc(Cl)c2)CC1)C1CCOC1 (stereo not given) | inconclusive: 20%
59 | CC1NC(=O)C(Cc2ccccc2)N(C)C(=O)C(Cc2ccccc2)N(C)C(=O)CNC(=O)CNC1=O (stereo not given) | inconclusive: 12%
60 | CCCCCC(=O)Nc1nc2c(s1)C[C@@H]1[C@](C)(CO)[C@H](O)CC[C@@]1(C)[C@@H]2CC(=O)N1CCOCC1 | inconclusive: 10%
61 | O=C(Nc1ccc(Cl)c(Cl)c1)c1ccccc1[N+](=O)[O-] | inconclusive: 17%
62 | COc1ccc(-n2nc3c(c2NC(=O)c2ccccc2C(F)(F)F)CS(=O)C3)cc1 (stereo not given) | inactive
63 | O=C1NCCN(CC2CCCCC2)C1CC(=O)N(Cc1nccs1)C1CC1 (stereo not given) | inactive
64 | CN1CCN(Cc2ccc(-c3cccc(Cl)c3)o2)CC1CCO (stereo not given) | inconclusive: 16%
65 | N#C/C(=C\c1ccc(Br)cc1)c1nc(C2CC2)cs1 | active: 49%
66 | O=C1N=c2ccc(Br)cc2=C1c1sc(Nc2cccc(Cl)c2Cl)nc1O | inconclusive: 19%
67 | CCOc1ccc(-c2cn(-c3ccc(CC)cc3)c(=O)[nH]2)cc1 | inconclusive: 13%
68 | O=C(CCS(=O)(=O)c1cccc2nonc12)N1CCc2ccccc21 | inconclusive: 10%
69 | O=C(CCS(=O)(=O)c1cc(Br)cc2c1N(C(=O)C1CC1)CC2)NC1CCCC1 | inactive

Row | Compound | inhibition
70 | CC(C)NC(=O)C1c2ccccc2C(=O)N2CCc3ccccc3C12 (stereo not given) | inconclusive: 10%
71 | Oc1ccccc1CN1CCC(c2[nH]ncc2-c2cccc(C(F)(F)F)c2)CC1 | inconclusive: 13%
72 | CN(CCC(=O)Nc1ccccc1Cl)Cc1cc(C2CC2)n[nH]1 | inconclusive: 10%
73 | Cc1ccc(N2CC(C(N)=O)CC2=O)cc1C (stereo not given) | inconclusive: 10%
74 | COc1ccc(CNC(=O)c2cc3cc4cc(OC)ccc4nc3o2)cc1 | inconclusive: 27%
75 | CC(c1cccnc1)N(C)C(=O)c1ccc(OCC(=O)N2CCCCC2)cc1 (stereo not given) | inconclusive: 16%
76 | CC(=O)c1cccc(CN(C)C(C)c2cccnc2)c1 (stereo not given) | inconclusive: 12%
77 | CS(=O)(=O)NCCC1=CCCCC1 | inconclusive: 17%
78 | CCOC(=O)C1(C/C=C/c2ccccc2)CCCN(C(=O)CCN2CCCCO2)C1 (stereo not given) | inconclusive: 14%
79 | CCc1ccccc1NC(=O)c1ccc(F)cc1 | inactive
80 | CS(=O)(=O)N1CCN(c2ccc([N+](=O)[O-])c(NCCc3ccccc3)c2)CC1 | inconclusive: 16%
81 | C=CCN1C(=O)C(=O)C(=C(O)c2ccc(Br)cc2)C1c1ccc([N+](=O)[O-])cc1 (stereo not given) | inconclusive: 18%
82 | CC1=C(C(=O)OC(C)C)C(c2ccccc2)C2=C(CC(c3ccccc3)CC2=O)N1 (stereo not given) | inconclusive: 10%
83 | CCCCC/C=C\CC(O)/C=C/c1cccc(CC(O)CCCCO)n1 (stereo not given) | inconclusive: 14%
84 | C=CCNC(=O)N[C@H]1[C@H](O)[C@@H](N2CCCC2)[C@@H]2OC[C@H]1O2 | inconclusive: 17%
85 | CC1CCCN(C(=O)CSc2c3c(nc4cc(Cl)ccc24)CCCC3)C1 (stereo not given) | inconclusive: 15%
86 | CSc1c(CC(=O)NCCc2ccccc2)n(C)c2ccc(C)cc12 | inactive
87 | Cc1ccc(NC(=O)c2cccnc2)c([N+](=O)[O-])c1 | inconclusive: 19%
88 | CN(C)c1ccc(C2CC(c3ccc(Cl)cc3)=NN2C(=O)CCC(=O)O)cc1 (stereo not given) | inconclusive: 17%
89 | CCCc1nnc2sc(-c3ccc[nH]3)nn12 | inconclusive: 17%
90 | CCc1ccc(NS(=O)(=O)c2cccc3cccnc23)cc1 | inconclusive: 10%

Some of these compounds in order of molecular weight, low to high:
Row | Compound | inhibition
90 | CCc1ccc(NS(=O)(=O)c2cccc3cccnc23)cc1 | inconclusive: 10%
83 | CCCCC/C=C\CC(O)/C=C/c1cccc(CC(O)CCCCO)n1 (stereo not given) | inconclusive: 14%
78 | CCOC(=O)C1(C/C=C/c2ccccc2)CCCN(C(=O)CCN2CCCCO2)C1 (stereo not given) | inconclusive: 14%

From PubChem BioAssay AID1259354 (Paczesny and Yang Labs, IUPUI and University of Michigan, 2018)
